Measured values published in patent US20020099180A1.
No constants are given. Whether binding was seen depends on the method and setting. Some results given as binding are weak or reduced against the parent protein; the word gives no strength.

Amino acid sequences for entries named in this document (tags omitted). Residues count along the entry.
UniProt Q12884, residues 27-760: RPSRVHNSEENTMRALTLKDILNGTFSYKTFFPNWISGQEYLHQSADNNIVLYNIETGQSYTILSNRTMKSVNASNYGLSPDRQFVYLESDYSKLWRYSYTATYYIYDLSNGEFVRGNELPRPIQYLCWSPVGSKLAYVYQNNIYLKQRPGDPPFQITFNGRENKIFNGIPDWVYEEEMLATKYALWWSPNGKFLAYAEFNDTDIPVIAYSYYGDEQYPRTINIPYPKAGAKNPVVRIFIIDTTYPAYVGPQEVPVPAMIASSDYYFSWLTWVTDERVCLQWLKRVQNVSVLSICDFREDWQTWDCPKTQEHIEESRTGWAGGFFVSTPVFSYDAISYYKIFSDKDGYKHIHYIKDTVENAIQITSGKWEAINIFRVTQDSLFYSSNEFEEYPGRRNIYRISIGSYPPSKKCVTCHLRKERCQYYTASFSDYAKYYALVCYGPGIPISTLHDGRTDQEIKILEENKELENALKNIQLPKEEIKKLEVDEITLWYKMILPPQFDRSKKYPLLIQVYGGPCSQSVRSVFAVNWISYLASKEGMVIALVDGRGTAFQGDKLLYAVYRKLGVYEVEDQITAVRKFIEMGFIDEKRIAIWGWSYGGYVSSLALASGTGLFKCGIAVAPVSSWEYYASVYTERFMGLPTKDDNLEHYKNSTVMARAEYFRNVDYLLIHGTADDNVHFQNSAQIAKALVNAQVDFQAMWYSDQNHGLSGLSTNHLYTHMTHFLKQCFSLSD

Biological target: fibroblast activating protein alpha (FAPα), purified and immobilised (ELISA wells) (human) (UniProt Q12884)
Assay: ELISA

binding | Binder
binds | scFv #13 (VH #13, IgG; VL III25) (scFv, not shown: large carriers) scFv: QVQLVESGGTLVQPGGSLRLSCAASGFTFSSYAMSWIRQAPGKGLEWVSGISASGGYIDYADSVKGRVTISRDNSKNMAYLQMSSLRAEDTALYYCAKGGNYQMLLDHWGQGTLVTVSSASTKGPKLEEGEFSEARVDIQMTQSPSSLSASTGDRVTITCRASQDISSYLAWYQQAPGKAPHLLMSGATTLQTGVPSRFSGSGSGTDFTLTITSLQSEDFATYYCQQYYIYPPTFGQGTRVEIKRTVAAPSVFAA
binds | scFv #50 (VH #50, IgD; VL III25) (scFv, not shown: large carriers) scFv: QVQLVESGGGLVQPGGSLRLSCAASGFTFSNYWMSWVRQAPGKGLEWVANIKQDGSEKYYVDSVKGRFTISRDNAKNSLYLQMNSLRAEDTAVYYCARGSLCTDGSCPTIGPGPNWGQGTLVTVSSAPTKAPKLEEGEFSEARVDIQMTQSPSSLSASTGDRVTITCRASQDISSYLAWYQQAPGKAPHLLMSGATTLQTGVPSRFSGSGSGTDFTLTITSLQSEDFATYYCQQYYIYPPTFGQGTRVEIKRTVAAPSVFAA
binds | scFv #46 (VH #46, IgG; VL III25) (scFv, not shown: large carriers) scFv: QVQLVQSGAEVKKDGASVKVSCKATGGTFSGHAISWVRQAPGQRLEWMGEISPMFGTPNYAQSFQGRVTITADESTSYMEVSSLRSEDTATYYCARGANYRALLDYWGQGTLVTVSSASTKGPKLEEGEFSEARVDIQMTQSPSSLSASTGDRVTITCRASQDISSYLAWYQQAPGKAPHLLMSGATTLQTGVPSRFSGSGSGTDFTLTITSLQSEDFATYYCQQYYIYPPTFGQGTRVEIKRTVAAPSVFAA
